# PubChem BioAssay AID1224830 – NIAID, 2016
# Assay: 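Genes whose knock-down alters the TNF-alpha reporter response to LPS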 (primary screen)
# System: human THP-1 monocytic leukaemia cells, TNF dual-luciferase reporter clone, PMA-differentiated to macrophage-like cells
# Reagents: siRNA pool against human genes, 50 nM
# Time to read-out: LPS for 4 h, given about 3 days after siRNA transfection
# Conditions: bacterial LPS (TLR4 ligand), 10 ng/ml
# Measurement: 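Ratio of firefly to renilla light, scaled to the plate median and expressed as a robust z-score per replicate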
# Direction: TNF reporter robust z-score: higher = stronger TNF reporter response to LPS
# Rule for the call: 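a well is active when its z-score exceeds 2.8 or falls below -1.5; control wells carry no call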
# In all, the deposit lists about 18,000 reagents; below is a part drawn at random. Over the whole deposit, about 2,900 (16%) got an active call. 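Calls are made per well; low scores hint the gene aids the LPS response, high scores that it dampens it.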 Repeated entries: four replicate wells of each siRNA pool. Reagent sequences are not shown.
gene knocked down,TNF reporter robust z-score,outcome
EIF3I,-0.43,inactive
EIF3I,-1.25,inactive
EIF3I,-0.96,inactive
EIF3I,-1.5,inactive
ORC4,0.35,inactive
ORC4,0.67,inactive
ORC4,0.98,inactive
ORC4,0.73,inactive
LOC642219 (retired record),2.02,inactive
LOC642219 (retired record),0.66,inactive
LOC642219 (retired record),2.77,inactive
LOC642219 (retired record),-0.3,inactive
MEX3A,0.89,inactive
MEX3A,-1.6,active
MEX3A,-1.52,active
MEX3A,-1.85,active
IGFL4,0.48,inactive
IGFL4,-1.52,active
IGFL4,0.08,inactive
IGFL4,0.32,inactive
CTDSPL,0.6,inactive
CTDSPL,2,inactive
CTDSPL,2.95,active
CTDSPL,4.78,active
PARL,-0.79,inactive
PARL,0.05,inactive
PARL,-0.19,inactive
PARL,-0.3,inactive
U2AF1L4,0.16,inactive
U2AF1L4,0.38,inactive
U2AF1L4,-0.31,inactive
U2AF1L4,0.05,inactive
OLIG3,0.94,inactive
OLIG3,0.91,inactive
OLIG3,1.04,inactive
OLIG3,1.2,inactive
SSPOP,,inactive
GP5,1.78,inactive
GP5,2.57,inactive
GP5,2.56,inactive
GP5,0.65,inactive
DUOXA2,2.68,inactive
DUOXA2,-0.01,inactive
DUOXA2,0.03,inactive
DUOXA2,1.17,inactive
NR1H2,1.07,inactive
NR1H2,1.47,inactive
NR1H2,0.58,inactive
NR1H2,2.47,inactive
NR1I2,0.01,inactive
NR1I2,0.05,inactive
NR1I2,0.47,inactive
NR1I2,0.54,inactive
RIOK2,-1.08,inactive
RIOK2,-0.8,inactive
RIOK2,-0.75,inactive
RIOK2,-0.05,inactive
HTR1E,2.12,inactive
HTR1E,1.56,inactive
HTR1E,1.59,inactive
HTR1E,2.18,inactive
AUH,-0.11,inactive
AUH,1.21,inactive
AUH,1,inactive
AUH,1.34,inactive
ZNF83,0.65,inactive
ZNF83,0,inactive
ZNF83,0.34,inactive
ZNF83,1.37,inactive
BCL2L13,0.19,inactive
BCL2L13,0.87,inactive
BCL2L13,-0.46,inactive
BCL2L13,0.99,inactive
FHL1,2.16,inactive
FHL1,-0.63,inactive
FHL1,0.6,inactive
FHL1,0.26,inactive
FAM222B,1.63,inactive
FAM222B,2.76,inactive
FAM222B,1.92,inactive
FAM222B,3.37,active
TOMM70,-0.56,inactive
TOMM70,0.22,inactive
TOMM70,0.35,inactive
TOMM70,1.22,inactive
KIF24,-1.55,active
KIF24,-0.65,inactive
KIF24,-1.25,inactive
KIF24,-0.75,inactive
OR13C3,0.34,inactive
OR13C3,0.35,inactive
OR13C3,1.04,inactive
OR13C3,0.51,inactive
OR2T12,0,inactive
OR2T12,0.45,inactive
OR2T12,0.71,inactive
OR2T12,0.73,inactive
OR2M2,-1.01,inactive
OR2M2,-0.2,inactive
OR2M2,-1.29,inactive
OR2M2,-0.83,inactive
SYNJ2BP,4.02,active
SYNJ2BP,2.54,inactive
SYNJ2BP,4.12,active
SYNJ2BP,2.96,active
STC2,0.71,inactive
STC2,1.21,inactive
STC2,0.85,inactive
STC2,0.57,inactive
TXNL4B,-1.5,inactive
TXNL4B,-0.45,inactive
TXNL4B,0.99,inactive
TXNL4B,1.1,inactive

19 neighbouring entries already listed, for reference:
gene knocked down,TNF reporter robust z-score,outcome
U2AF1L4,0.16,inactive
U2AF1L4,0.38,inactive
U2AF1L4,-0.31,inactive
U2AF1L4,0.05,inactive
OLIG3,0.94,inactive
OLIG3,0.91,inactive
OLIG3,1.04,inactive
OLIG3,1.2,inactive
SSPOP,,inactive
GP5,1.78,inactive
GP5,2.57,inactive
GP5,2.56,inactive
GP5,0.65,inactive
DUOXA2,2.68,inactive
DUOXA2,-0.01,inactive
DUOXA2,0.03,inactive
DUOXA2,1.17,inactive
NR1H2,1.07,inactive
NR1H2,1.47,inactive
